Data from patent publication US20210338751A1.
These are yes or no findings as the source states them, for the method shown. For some of these results: A result given as binding can be weak or reduced; the word gives no strength. For some of these results: Tags and fused reporters may be left off the sequences shown.

B1: Nano94-TxnA (VHH)
VHH: QVQLQESGGGLVQAGGSLRLSCAASGRMFSINSMGWYRQAPGKERELVATISEAGTTTYADSVRGRFTIARDNAKNTVYLQMNSLNPEDTAVYYCNAYIQLDSTIWFRAYWGQGTQVTVSS
B2: Nano94 (no chaperone partner) (VHH)
VHH: B1 VHH
B3: Nano94-MBP (VHH)
VHH: B1 VHH

Key:
[1] = biological target: recombinant HuNoV GI.3 P domain (Human Norovirus (HuNoV) GI.3); assay: ELISA on recombinant GI.3 P domain
[2] = biological target: recombinant HuNoV GI.1 P domain (Human Norovirus (HuNoV) GI.1); assay: ELISA on recombinant GI.1 P domain, normalized absorbance 450 nm against log concentration (M); EC50 printed in Table 5 of the text
[3] = biological target: recombinant HuNoV GI.1 P domain (Human Norovirus (HuNoV) GI.1); assay: ELISA, Ni-NTA purified VHH from Spirulina
[4] = biological target: recombinant HuNoV GI.1 P domain (Human Norovirus (HuNoV) GI.1); assay: ELISA on recombinant GI.1 P domain
[5] = biological target: GI.1 VLPs (human norovirus genotype GI.1); assay: blocking assay: GI.1 VLPs (1 ug/ml) pre-incubated with the sample, binding to plate-coated pig gastric mucin (HBGA) detected with biotinylated nanobody NB60
[6] = biological target: recombinant HuNoV GI.1 P domain (Human Norovirus (HuNoV) GI.1); assay: ELISA, Ni-NTA purified protein, lyophilized against stored at 4 C
[7] = biological target: recombinant HuNoV GI.1 P domain (Human Norovirus (HuNoV) GI.1); assay: ELISA on GI.1 P domain (P1), Ni-NTA purified Spirulina-expressed VHH, dilution series from 20 µg/ml; concentrations not given

Binder | binding [1] | binding [2] | binding [3] | binding [4] | binding [5] | binding [6] | binding [7]
B1 | no binding | binds | binds | binds | binds | binds | binds
B2 |  |  | binds |  |  | binds | binds
B3 |  |  | binds |  | binds |  | binds
